Data taken from the supplement of paper PMC12819154, “High-throughput peptide-centric local stability assay extends protein–ligand identification to membrane proteins, tissues and bacteria” (Nature Structural & Molecular Biology, 2025).
Some of the results follow. Most values lie at the level of the controls, where differences are scatter.

By UniProt entry, the sequences of proteins in these tests, tags left out. Where a name states a change or a piece, a line headed by the entry shows the natural chain unless it says otherwise.
UniProt Q9ER41: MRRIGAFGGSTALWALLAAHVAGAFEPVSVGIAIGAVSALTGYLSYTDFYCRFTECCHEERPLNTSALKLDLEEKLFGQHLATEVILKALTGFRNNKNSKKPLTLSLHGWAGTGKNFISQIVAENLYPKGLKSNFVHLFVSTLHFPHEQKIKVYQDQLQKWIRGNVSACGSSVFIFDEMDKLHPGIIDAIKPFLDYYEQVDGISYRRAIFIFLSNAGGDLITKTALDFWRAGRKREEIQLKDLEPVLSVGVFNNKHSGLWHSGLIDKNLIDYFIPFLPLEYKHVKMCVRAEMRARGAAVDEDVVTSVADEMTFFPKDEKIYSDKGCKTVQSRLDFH
UniProt Q9EPU4: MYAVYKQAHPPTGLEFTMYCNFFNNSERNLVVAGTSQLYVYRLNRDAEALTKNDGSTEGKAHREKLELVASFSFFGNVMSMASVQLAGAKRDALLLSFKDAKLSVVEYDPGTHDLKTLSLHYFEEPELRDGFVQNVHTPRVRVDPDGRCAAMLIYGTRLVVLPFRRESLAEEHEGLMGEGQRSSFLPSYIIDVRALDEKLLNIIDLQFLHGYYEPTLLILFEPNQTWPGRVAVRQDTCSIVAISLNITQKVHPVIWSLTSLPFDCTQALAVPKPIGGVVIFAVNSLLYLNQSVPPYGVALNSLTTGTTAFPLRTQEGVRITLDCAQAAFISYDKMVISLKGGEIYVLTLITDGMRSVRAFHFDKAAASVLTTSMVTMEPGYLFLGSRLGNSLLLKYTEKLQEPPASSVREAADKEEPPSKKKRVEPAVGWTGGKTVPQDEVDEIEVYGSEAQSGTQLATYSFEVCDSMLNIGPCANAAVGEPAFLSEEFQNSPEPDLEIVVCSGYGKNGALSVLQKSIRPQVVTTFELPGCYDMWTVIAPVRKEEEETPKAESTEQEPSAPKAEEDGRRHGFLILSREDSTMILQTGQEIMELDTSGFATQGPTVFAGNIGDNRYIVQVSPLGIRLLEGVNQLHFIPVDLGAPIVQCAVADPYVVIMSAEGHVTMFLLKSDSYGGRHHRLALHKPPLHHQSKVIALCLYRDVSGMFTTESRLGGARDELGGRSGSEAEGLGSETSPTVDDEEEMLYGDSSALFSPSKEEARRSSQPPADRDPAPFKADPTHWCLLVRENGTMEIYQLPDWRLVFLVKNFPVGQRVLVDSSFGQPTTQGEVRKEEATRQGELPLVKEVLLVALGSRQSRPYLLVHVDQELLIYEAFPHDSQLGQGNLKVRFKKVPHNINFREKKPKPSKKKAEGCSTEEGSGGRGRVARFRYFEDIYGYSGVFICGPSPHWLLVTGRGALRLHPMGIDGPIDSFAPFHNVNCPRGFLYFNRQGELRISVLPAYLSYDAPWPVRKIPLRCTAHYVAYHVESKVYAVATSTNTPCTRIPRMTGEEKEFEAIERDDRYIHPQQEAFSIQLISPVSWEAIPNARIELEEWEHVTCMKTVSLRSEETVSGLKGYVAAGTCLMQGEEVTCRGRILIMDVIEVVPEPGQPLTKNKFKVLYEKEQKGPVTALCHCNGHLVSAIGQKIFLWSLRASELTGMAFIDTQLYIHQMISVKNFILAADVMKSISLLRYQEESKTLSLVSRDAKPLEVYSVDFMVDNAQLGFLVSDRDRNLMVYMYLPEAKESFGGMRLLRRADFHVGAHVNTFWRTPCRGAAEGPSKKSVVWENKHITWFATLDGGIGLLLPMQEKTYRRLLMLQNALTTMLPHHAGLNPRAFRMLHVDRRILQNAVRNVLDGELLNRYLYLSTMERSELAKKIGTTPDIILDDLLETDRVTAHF
UniProt Q9DCL9: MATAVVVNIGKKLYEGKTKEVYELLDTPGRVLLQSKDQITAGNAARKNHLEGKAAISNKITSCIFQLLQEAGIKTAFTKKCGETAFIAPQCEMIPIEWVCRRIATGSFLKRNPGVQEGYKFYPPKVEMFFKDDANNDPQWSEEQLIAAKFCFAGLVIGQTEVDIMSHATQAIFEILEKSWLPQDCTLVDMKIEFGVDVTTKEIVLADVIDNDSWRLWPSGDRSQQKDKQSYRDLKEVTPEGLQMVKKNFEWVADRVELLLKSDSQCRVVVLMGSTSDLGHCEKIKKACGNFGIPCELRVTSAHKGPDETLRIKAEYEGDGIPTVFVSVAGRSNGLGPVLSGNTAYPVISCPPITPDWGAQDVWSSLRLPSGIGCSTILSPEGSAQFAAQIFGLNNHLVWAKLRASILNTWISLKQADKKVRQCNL
UniProt Q9DBS8: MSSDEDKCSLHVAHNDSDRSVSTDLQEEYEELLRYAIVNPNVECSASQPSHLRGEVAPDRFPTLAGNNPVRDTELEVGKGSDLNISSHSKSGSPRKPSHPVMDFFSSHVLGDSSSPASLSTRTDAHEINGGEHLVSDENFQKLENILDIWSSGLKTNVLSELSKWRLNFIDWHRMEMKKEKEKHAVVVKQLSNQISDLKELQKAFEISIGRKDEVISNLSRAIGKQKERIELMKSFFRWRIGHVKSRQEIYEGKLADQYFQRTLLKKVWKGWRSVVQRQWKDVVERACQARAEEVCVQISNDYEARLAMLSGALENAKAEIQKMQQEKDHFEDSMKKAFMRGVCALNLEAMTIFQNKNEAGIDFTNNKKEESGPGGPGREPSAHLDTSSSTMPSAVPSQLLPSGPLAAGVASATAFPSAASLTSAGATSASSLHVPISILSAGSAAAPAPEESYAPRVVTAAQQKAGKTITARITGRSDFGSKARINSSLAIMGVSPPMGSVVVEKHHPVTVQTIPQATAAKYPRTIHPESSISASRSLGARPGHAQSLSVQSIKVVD
UniProt Q9DBZ1: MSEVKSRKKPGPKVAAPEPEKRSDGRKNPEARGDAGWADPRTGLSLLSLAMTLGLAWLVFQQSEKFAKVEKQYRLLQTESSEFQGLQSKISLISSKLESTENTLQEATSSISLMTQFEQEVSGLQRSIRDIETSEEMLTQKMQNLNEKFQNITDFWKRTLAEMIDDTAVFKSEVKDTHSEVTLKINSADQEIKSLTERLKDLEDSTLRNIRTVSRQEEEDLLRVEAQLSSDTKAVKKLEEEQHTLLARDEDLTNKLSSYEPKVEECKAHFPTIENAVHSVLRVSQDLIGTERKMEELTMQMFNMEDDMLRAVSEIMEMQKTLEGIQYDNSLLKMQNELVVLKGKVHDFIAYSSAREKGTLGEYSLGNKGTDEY
UniProt Q9DCM2: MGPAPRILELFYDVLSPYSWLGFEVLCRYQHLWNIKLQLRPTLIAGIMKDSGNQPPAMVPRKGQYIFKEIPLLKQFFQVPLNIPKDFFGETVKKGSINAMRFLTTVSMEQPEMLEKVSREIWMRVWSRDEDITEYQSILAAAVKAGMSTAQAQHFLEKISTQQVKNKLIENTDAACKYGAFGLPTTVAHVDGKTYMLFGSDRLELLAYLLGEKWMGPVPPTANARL
UniProt Q9DCU9: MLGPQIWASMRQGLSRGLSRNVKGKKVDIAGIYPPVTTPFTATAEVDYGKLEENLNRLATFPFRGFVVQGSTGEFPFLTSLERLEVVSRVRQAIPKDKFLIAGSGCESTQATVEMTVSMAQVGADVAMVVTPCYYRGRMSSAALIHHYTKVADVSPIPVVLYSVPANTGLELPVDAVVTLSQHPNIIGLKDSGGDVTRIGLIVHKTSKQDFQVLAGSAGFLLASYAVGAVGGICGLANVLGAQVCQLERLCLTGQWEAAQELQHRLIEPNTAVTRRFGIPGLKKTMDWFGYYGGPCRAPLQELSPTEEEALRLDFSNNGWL
UniProt Q9DCT2, whole entry: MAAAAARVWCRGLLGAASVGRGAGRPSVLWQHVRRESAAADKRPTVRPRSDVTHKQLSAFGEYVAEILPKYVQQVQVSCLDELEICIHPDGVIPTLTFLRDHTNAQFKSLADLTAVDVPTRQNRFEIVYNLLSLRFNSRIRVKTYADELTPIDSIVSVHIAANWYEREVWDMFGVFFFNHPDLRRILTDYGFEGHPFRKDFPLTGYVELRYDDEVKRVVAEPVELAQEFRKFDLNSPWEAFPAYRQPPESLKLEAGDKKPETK
UniProt Q9ER80: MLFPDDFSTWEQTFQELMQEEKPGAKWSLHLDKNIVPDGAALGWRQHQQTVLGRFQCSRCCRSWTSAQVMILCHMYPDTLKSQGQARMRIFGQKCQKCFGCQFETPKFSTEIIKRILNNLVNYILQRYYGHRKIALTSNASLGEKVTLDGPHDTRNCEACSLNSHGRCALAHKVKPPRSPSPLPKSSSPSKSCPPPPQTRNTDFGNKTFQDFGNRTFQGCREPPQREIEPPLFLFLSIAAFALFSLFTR
UniProt Q9ERI6: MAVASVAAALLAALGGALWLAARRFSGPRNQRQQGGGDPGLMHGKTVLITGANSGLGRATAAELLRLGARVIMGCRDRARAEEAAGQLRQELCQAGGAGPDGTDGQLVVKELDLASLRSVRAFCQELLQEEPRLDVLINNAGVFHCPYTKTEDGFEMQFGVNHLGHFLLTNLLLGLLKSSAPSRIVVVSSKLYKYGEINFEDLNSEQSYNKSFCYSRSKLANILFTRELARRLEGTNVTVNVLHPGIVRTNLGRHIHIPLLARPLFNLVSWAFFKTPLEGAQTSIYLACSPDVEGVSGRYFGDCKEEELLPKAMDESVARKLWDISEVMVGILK
UniProt Q9DB20: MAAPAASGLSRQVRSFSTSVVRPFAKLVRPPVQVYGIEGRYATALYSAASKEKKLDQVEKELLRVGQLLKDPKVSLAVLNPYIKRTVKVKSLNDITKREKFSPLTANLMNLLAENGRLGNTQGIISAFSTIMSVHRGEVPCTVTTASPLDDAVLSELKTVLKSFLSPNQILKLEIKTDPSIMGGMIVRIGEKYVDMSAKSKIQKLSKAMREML
UniProt Q9DCF9: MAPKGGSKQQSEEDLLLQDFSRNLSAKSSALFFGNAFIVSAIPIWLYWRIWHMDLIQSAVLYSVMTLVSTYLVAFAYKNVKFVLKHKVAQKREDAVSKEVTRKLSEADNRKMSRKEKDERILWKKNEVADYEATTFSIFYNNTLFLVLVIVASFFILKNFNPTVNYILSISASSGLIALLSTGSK
UniProt Q9DBC0, whole entry: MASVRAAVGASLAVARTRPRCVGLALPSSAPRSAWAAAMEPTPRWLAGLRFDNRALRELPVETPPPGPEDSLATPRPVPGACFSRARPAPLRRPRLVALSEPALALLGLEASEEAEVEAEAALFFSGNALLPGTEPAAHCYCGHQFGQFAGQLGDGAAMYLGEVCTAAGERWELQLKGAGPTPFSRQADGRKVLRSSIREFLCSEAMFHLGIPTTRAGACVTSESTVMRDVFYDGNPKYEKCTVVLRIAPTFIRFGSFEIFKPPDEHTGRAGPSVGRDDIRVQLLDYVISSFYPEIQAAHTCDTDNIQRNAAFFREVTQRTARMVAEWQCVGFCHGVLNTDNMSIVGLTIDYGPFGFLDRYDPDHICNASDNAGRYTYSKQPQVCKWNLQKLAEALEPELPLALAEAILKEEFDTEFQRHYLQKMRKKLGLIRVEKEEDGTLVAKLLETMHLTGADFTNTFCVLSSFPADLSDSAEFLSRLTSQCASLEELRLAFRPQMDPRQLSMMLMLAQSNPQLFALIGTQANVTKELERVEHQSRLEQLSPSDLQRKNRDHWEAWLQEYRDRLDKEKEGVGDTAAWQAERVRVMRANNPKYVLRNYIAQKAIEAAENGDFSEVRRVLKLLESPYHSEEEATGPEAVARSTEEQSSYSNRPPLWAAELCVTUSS
UniProt Q9DBM1: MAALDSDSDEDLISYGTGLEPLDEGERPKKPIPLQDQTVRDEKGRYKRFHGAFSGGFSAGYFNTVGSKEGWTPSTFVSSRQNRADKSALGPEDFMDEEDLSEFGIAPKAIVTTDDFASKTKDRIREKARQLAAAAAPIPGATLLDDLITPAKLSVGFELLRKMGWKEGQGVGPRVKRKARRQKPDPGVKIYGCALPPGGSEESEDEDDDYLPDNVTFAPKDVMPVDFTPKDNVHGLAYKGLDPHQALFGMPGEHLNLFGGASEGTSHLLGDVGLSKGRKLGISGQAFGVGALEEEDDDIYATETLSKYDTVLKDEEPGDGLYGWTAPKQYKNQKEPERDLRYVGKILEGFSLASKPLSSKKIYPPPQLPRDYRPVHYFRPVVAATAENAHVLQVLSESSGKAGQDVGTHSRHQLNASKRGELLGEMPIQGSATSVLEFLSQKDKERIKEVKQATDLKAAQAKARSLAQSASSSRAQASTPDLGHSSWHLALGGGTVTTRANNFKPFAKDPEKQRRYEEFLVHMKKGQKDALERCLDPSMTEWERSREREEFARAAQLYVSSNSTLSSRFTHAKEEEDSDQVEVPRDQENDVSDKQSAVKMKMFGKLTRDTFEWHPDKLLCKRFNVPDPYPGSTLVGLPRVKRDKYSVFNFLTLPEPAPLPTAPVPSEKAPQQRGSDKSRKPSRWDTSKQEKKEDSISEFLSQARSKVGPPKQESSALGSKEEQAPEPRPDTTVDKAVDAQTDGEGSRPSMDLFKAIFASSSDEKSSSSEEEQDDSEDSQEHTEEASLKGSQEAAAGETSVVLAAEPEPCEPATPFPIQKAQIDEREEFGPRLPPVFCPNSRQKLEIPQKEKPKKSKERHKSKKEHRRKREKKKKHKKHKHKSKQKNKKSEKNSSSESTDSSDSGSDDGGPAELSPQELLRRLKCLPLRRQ

These targets were tested with CN[C@@H]1C[C@H]2O[C@@](C)([C@@H]1OC)n1c3ccccc3c3c4c(c5c6ccccc6n2c5c31)C(=O)NC4 [staurosporine] (assay: log2 fold change of tryptic peptide abundance, ligand vs vehicle (limited proteolysis) (log2 ratio); higher = more trypsin-susceptible (destabilized)). Conditions: ligand concentration: 20 uM; sample: mouse liver crude lysate; replicate design: treated separately.

| Target | log2 fold change |
| --- | --- |
| UniProt Q9DBZ5 (peptide sequence: ALTNLPHTDFTLCK, peptide start residue: 73) | -0.713 |
| UniProt Q9ER41 (peptide sequence: IYSDKGCK, peptide start residue: 320) | 0.553 |
| UniProt Q9EPU4 (peptide sequence: IELEEWEHVTCMK, peptide start residue: 1090) | -0.486 |
| UniProt Q9DCL9 (peptide sequence: EVTPEGLQMVKK, peptide start residue: 236) | 0.124 |
| UniProt Q9DBS8 (peptide sequence: HHPVTVQTIPQATAAK, peptide start residue: 507) | 0.175 |
| UniProt Q9DBZ1 (peptide sequence: VAAPEPEKR, peptide start residue: 14) | -0.186 |
| UniProt Q9DCM2 (peptide sequence: YGAFGLPTTVAHVDGK, peptide start residue: 178) | -0.368 |
| UniProt Q9DCU9 (peptide sequence: MSSAALIHHYTK, peptide start residue: 139) | -0.0942 |
| UniProt Q9DCT2 (peptide sequence: DHTNAQFK, peptide start residue: 101) | 0.853 |
| UniProt Q9DC63 (peptide sequence: LVVPGLLGSMALSNHYR, peptide start residue: 154) | 0.345 |
| UniProt Q9DB05 (peptide sequence: IEEACEIYAR, peptide start residue: 38) | 0.197 |
| UniProt Q9EPK5 (peptide sequence: ITTWQDPR, peptide start residue: 149) | 0.169 |
| UniProt Q9ERS5 (peptide sequence: YFLQANDQK, peptide start residue: 91) | 0.262 |
| UniProt Q9DBP5 (peptide sequence: IVEKYGYTHLSAGELLR, peptide start residue: 23) | -0.3 |
| UniProt Q9DBL1 (peptide sequence: LVEAGRPFIKEASMAK, peptide start residue: 356) | 0.23 |
| UniProt Q9ER80 (peptide sequence: KIALTSNASLGEK, peptide start residue: 133) | 0.204 |

Random excerpt: 2 entries already listed, in no set order.

| Target | log2 fold change |
| --- | --- |
| UniProt Q9DBZ5 (peptide sequence: ALTNLPHTDFTLCK, peptide start residue: 73) | -0.713 |
| UniProt Q9ERS5 (peptide sequence: YFLQANDQK, peptide start residue: 91) | 0.262 |

Next results

| Target | log2 fold change |
| --- | --- |
| UniProt Q9ERI6 (peptide sequence: ELDLASLR, peptide start residue: 111) | -0.285 |
| UniProt Q9DB20 (peptide sequence: LVRPPVQVYGIEGR, peptide start residue: 27) | 0.128 |
| UniProt Q9EQJ9 (peptide sequence: IALEGEIGRDVCSSYR, peptide start residue: 975) | 0.426 |
| UniProt Q9DCF9 (peptide sequence: KLSEADNR, peptide start residue: 103) | 0.0851 |
| UniProt Q9DCZ1 (peptide sequence: HAGGVAEYR, peptide start residue: 278) | 0.332 |
| UniProt Q9DBG7 (peptide sequence: GTLGGMFGMLK, peptide start residue: 313) | -0.12 |
| UniProt Q9ERG2 (peptide sequence: LKYGTELNQGDLK, peptide start residue: 135) | -0.21 |
| UniProt Q9DCJ9 (peptide sequence: FINYVIK, peptide start residue: 252) | 0.327 |
| UniProt Q9ERH7 (peptide sequence: GTNEIVAIK, peptide start residue: 218) | -0.619 |
| UniProt Q9DBC0 (peptide sequence: GAGPTPFSR, peptide start residue: 178) | 0.21 |
| UniProt Q9EQ00 (peptide sequence: TDTGLTQGLLK, peptide start residue: 70) | -0.674 |
| UniProt Q9EQK5 (peptide sequence: LLQSLGLK, peptide start residue: 821) | -0.171 |
| UniProt Q9DBM1 (peptide sequence: AIVTTDDFASK, peptide start residue: 109) | -0.29 |
| UniProt Q9DBJ6 (peptide sequence: LSPNTMVTPHKK, peptide start residue: 63) | 0.284 |
| UniProt Q9ERN0 (peptide sequence: QQEELDR, peptide start residue: 88) | -0.0723 |
